# The whole screen tested about 330,000 compounds, of which about 100 (0.03%) were called active. The shares of active, inactive and inconclusive entries below differ from those in the screen. The call rests on the fitted dose curve; in most records, active means well fitted inhibition curve with a large enough effect; inconclusive means small, poorly fitted or top-dose-only effect; inactive means flat fitted curve, though single readings scatter. Potencies beside an inconclusive call are fits to weak or partial responses and may not hold up.
# System: Chaperonin Mm-Cpn (Methanococcus maripaludis)
# Experiment: Inhibitors of TCP-1 ring complex (TRiC) of Methanococcus maripaludis (MmCpn): qHTS; further: nearly all actives have a fitted effect of over 80% in size;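 on Potency: enzyme at 25 nM with ATP substrate at 10 µM during the reaction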
# Conditions: purified Mm-Cpn ATPase, ADP Transcreener TR-FRET; activity, negative = inhibition: at the top concentration
# Description: The eukaryotic chaperonin TRiC (for TCP-1 ring complex) is an essential and conserved chaperone required for the folding and activation of 10-15% of the proteins encoded by the human genome. […] The TRiC complex consist of two stacked 7-9 membered rings, each containing a central cavity. Substrates are folded within the cavity in an ATP-dependent manner. TRiC is a complex of eight different, essential proteins. As each of the genes encoding the eight subunits is essential for cell viability and no protocol has been developed to over-express this enzyme to high levels. That is why several groups studying the TRiC chaperonin have turned to the archaeal homolog of TRiC, Methanococcus maripaludis (Mm-CPN), and have used this enzyme as a model system for the study of the type II chaperonin family. Small molecule inhibitors of the Mm-CPN enzyme would be extremely useful to study the mechanism of chaperonin activity. Importantly, TRiC and Mm-CPN both require ATP hydrolysis for function. Furthermore, the ATP binding sites are highly conserved among these type II chaperonins. This provides us with an easy, well tested and straightforward assay to identify inhibitors of chaperonin activity. The Mm-CPN assay was developed in 1536-well plate format using the HTRF Transcreener ADP assay kit (Cisbio, Bedford, MA). This assay applied the time resolved fluorescence resonance energy transfer (TR-FRET) principle. ATP in the presence of Mm-CPN is converted to ADP + Pi. An antibody labeled with Eu3+-Cryptate specific and bound to ADP labeled with […] (d2) competes with the unlabeled ADP generated by Mm-CPN. The resulting TR-FRET signal is inversely proportional to the concentration of ADP in the sample. In this assay a reduction in TR-FRET signal is observed with ATP turnover. NIH Chemical Genomics Center [NCGC] NIH Molecular Libraries Probe Centers Network [MLPCN] MLPCN Grant: DA030554-01A1 Assay Submitter (PI): Judith Frydman, Stanford University
# Purified Mm-CPN was supplied by the laboratory of Dr. Judith Frydman. Protein samples were stored at -80C as single use aliquots. Protein was thawed in ambient temperature water bath and placed on ice once thawed. Buffer was prepared fresh day of screen. The buffer composition below was used to prepare the working solution of the Mm-CPN protein and ATP substrate. The buffer is comprised of 30 mM TRIS pH 7.4, 100mM KCl, 5mM MgCl2, and 1mM DTT. A final concentration of 25nM Mm-CPN and 10uM ATP per well were used in the screen. Instructions according to the manufacturer were followed for the ADP Transcreener kit. Used 1536 well Greiner white, medium binding (MB), solid bottom plates. Plates were read on the PerkinElmer EnVision plate reader using Excitation = 320 nm and Emission = […], 665 nm. Protocol- 1.Dispense 1.5ul per well of working [Mm-CPN] = 50nM (or 75 ng / well) 2.Spin plate at 1000 rpm for 30 seconds 3.23nl of compound transferred per well 4.Incubate at 37degC for 10 minutes 5.Dispense 1.5ul per well of working [ATP] = 20uM 6.Incubate at 37degC for 30 minutes 7.Dispense 3ul per well of Anti-ADP Cryptate / ADP-d2 mix (prepared as instructed by Cisbio) 8.Incubate at ambient for 30 minutes 9.Read using EnVision
# On the % scale 0 is the no-effect control and ±100 the full control effect; potency means the concentration at half of the fitted maximal effect.
Structure (SMILES),Potency,"activity, negative = inhibition"
COc1ccc(OC)c2c1sc(=NC(=O)C(C)C)n2C,"inconclusive: 100 µM [inhibitor, partial curve, poor fit]",
Cc1nc(CN(C)C(=O)c2cc(COc3ccc4ncccc4c3)on2)cs1,"inconclusive: 56.2 µM [inhibitor, single point]",
Cc1cccc(-[n+]2c(C)cc(C)c3c(=O)[nH]c(=O)[nH]c32)c1,"inconclusive: 100 µM [inhibitor, single point]",
O=S(=O)(c1ccc(-c2csc(-c3cccnc3)n2)cc1)N1CCCCC1,"inconclusive: 100 µM [inhibitor, single point]",
CN=C(NC1CCCCC1)c1ccc(Cl)cc1,"inconclusive: 100 µM [inhibitor, single point]",
C=CCNCCCCOc1ccc(OCc2ccccc2)cc1,,inactive: 0.321%
COc1ccc(NC(=O)CN2C(=O)/C(=C3\SC(=S)N(CCC(=O)O)C3=O)c3ccccc32)cc1,,inactive: -1.19%
CCOC(=O)/C=C/C(=O)Nc1ccc(S(=O)(=O)Nc2c(C)cc(C)cc2C)cc1,"inconclusive: 17.8 µM [inhibitor, single point]",
COc1ccc2nc3oc(C(=O)NC4CCN(Cc5ccccc5)CC4)cc3cc2c1,"inconclusive: 20 µM [inhibitor, single point]",
CCC(C)(C)C1CCC(=NNC(=S)Nc2ccccc2)CC1 (stereo unspecified),,inactive: -3.51%
Cc1nc(N2CCN(C(=O)c3ccco3)CC2)c2c3c(sc2n1)CC(C)CC3 (stereo unspecified),,inactive: 1.22%
N#CC1=C(N)Oc2n[nH]c(-c3cccnc3)c2C1c1ccc([N+](=O)[O-])o1 (stereo unspecified),"inconclusive: 39.8 µM [inhibitor, single point]",
Cn1nnc2cc(C(=O)N3CCN(c4ccccn4)CC3)ccc21,"inconclusive: 28.2 µM [inhibitor, single point]",
Clc1ccc(SCc2cn3cccnc3n2)cc1,"inconclusive: 25.1 µM [inhibitor, single point]",
CCOc1ccc(-n2cc(-c3ccccc3)c3c(N4CCOCC4)ncnc32)cc1,"inconclusive: 15.8 µM [inhibitor, single point]",
COc1ccc(NC(=O)CN(C)C(=O)Cc2ccc3c(c2)CCC3)cc1,,inactive: -0.0701%
Nc1c(C(=O)NCc2ccccc2)c2nc3ccccc3nc2n1-c1ccc2c(c1)OCO2,,inactive: -3.47%
CCOc1ccccc1OCCOCCOc1ccccc1[N+](=O)[O-],,inactive: 1.44%
Cc1cccn2c(=O)c(C(=O)NC3CCCCC3)c(O)nc12,"inconclusive: 56.2 µM [inhibitor, single point]",
Cc1ccc(C(=O)/C=C/c2ccccc2[N+](=O)[O-])cc1,"inconclusive: 11.2 µM [inhibitor, single point]",
C=CCNC(=S)Nc1ccc2nsnc2c1,"inconclusive: 89.1 µM [inhibitor, partial curve, poor fit]",
COc1ccc(CCC(=O)Nc2ccc(-c3noc(-c4ccc(OC)c(OC)c4)n3)cc2)cc1,"inconclusive: 112 µM [inhibitor, single point]",

Structure (SMILES),Potency,"activity, negative = inhibition"
COc1cccc(/C=C/C(=O)OCC(=O)c2ccc(S(=O)(=O)N3CCCCC3)cc2)c1OC,"inconclusive: 112 µM [inhibitor, partial curve, poor fit]",
Cc1ccc(S(=O)(=O)c2nc(S(C)(=O)=O)sc2N2CCCCC2C)cc1 (stereo unspecified),"inconclusive: 316 µM [inhibitor, partial curve, poor fit]",
Cc1cccc(NC(=O)CSc2nc(-c3ccccc3)c(C#N)c(=O)[nH]2)c1C,"inconclusive: 1260 µM [inhibitor, partial curve, poor fit]",
Cc1sc(NC(=O)c2cc(-c3ccccc3)nc3ccccc23)c(C(N)=O)c1C,"inconclusive: 79.4 µM [inhibitor, single point]",
O=C(OCC(=O)N1CCN(c2ccccc2)CC1)C1=COCCO1,"inconclusive: 63.1 µM [inhibitor, single point]",
Nc1ccc2nc(-c3cccs3)[nH]c2c1,"inconclusive: 141 µM [inhibitor, partial curve, poor fit]",
COc1ccc(NC(=S)N(CCC(C)C)C(C)c2ccncc2)cc1 (stereo unspecified),"inconclusive: 44.7 µM [inhibitor, single point]",
CCCn1c(SCC(=O)NCc2ccco2)nnc1C(C)C,,inactive: -0.495%
CCOC(=O)c1ccc(N2C(=O)CC(N3CCC(C(=O)OCC)CC3)C2=O)cc1 (stereo unspecified),"inconclusive: 200 µM [inhibitor, partial curve, poor fit]",
Cc1nn(C(=O)N2CCCCC2)c(C)c1CN1C(=O)c2ccccc2C1=O,"inconclusive: 79.4 µM [inhibitor, single point]",
CCC(=O)Nc1ccc2oc(-c3cccnc3)nc2c1,"inconclusive: 50.1 µM [inhibitor, single point]",
Cc1ccc(C2(C(F)(F)F)NC(=O)N3N=C4CCCCCN4C3=C2C#N)cc1 (stereo unspecified),"inconclusive: 11.2 µM [inhibitor, single point]",
Cc1c(CCC(=O)O)c(=O)oc2cc(OCc3ccccc3F)ccc12,"inconclusive: 12.6 µM [inhibitor, single point]",
O=c1[nH]c2ccccc2n1C1CCCCC1,,inactive: 1.57%
CCN(CC)S(=O)(=O)c1ccc(C(=O)N2CCc3ccccc32)cc1,"inconclusive: 100 µM [inhibitor, single point]",
Cn1c(SCCOc2ccccc2F)nc2ccccc2c1=O,"inconclusive: 100 µM [inhibitor, partial curve]",
CC(=O)c1c(C)[nH]c(C(=O)OCc2cc(=O)n3cc(Br)ccc3n2)c1C,"inconclusive: 39.8 µM [inhibitor, partial curve, poor fit]",
Cc1cccc(N2CCN(C(=O)c3cc(S(=O)(=O)N4CCCC4)cn3C)CC2)c1C,"inconclusive: 89.1 µM [inhibitor, single point]",
O=C(O)c1cc(-n2cccc2)ccc1N1CCOCC1,"inconclusive: 100 µM [inhibitor, single point]",
O=S(=O)(Nc1nc(SCc2ccc(Cl)cc2)n[nH]1)c1ccc(F)cc1,,inactive: 0.962%
O=C(CSc1nnc(CNC(=O)c2ccco2)o1)Nc1cccc(C(F)(F)F)c1,"inconclusive: 20 µM [inhibitor, single point]",
Cc1cc2ccccc2n1CCNC(=O)c1ccc(Br)o1,"inconclusive: 224 µM [inhibitor, partial curve, poor fit]",

# Part of the list above, bar-delimited:
Structure (SMILES) | Potency | activity, negative = inhibition
Cc1nn(C(=O)N2CCCCC2)c(C)c1CN1C(=O)c2ccccc2C1=O | inconclusive: 79.4 µM [inhibitor, single point] | 
O=c1[nH]c2ccccc2n1C1CCCCC1 |  | inactive: 1.57%

# (cont.)

Structure (SMILES),Potency,"activity, negative = inhibition"
COc1ccc(-c2sc3ccc(OC)cc3c2-c2ccc(OC)c(F)c2)cc1,"inconclusive: 25.1 µM [inhibitor, single point]",
Cc1ccc(NC(=O)Nc2nnc(-c3ccccc3)o2)cc1,"inconclusive: 63.1 µM [inhibitor, partial curve, poor fit]",
COc1cccc(NC(=O)CN2CCN(c3nc(-c4cccc(OC)c4)cs3)CC2)c1,"inconclusive: 100 µM [inhibitor, partial curve, poor fit]",
C/C(=N\N=C1/SC(CC(=O)O)C(=O)N1c1ccccc1)c1ccc(C)cc1 (stereo unspecified),"inconclusive: 100 µM [inhibitor, single point]",
O=C(CC1SC(N2CCOCC2)=NC1=O)Nc1ccccc1F (stereo unspecified),"inconclusive: 79.4 µM [inhibitor, single point]",
Cc1cc(NC(=O)CC#N)n(-c2ccccc2)n1,"inconclusive: 89.1 µM [inhibitor, single point]",
CCCSc1nnc(N2C(=O)C(O)=C(C(=O)c3ccco3)C2c2ccccc2F)s1 (stereo unspecified),,inactive: -14.8%
CCOC(=O)C1=C(CSc2nccn2C)NC(=O)NC1c1cc(C)ccc1C (stereo unspecified),,inactive: -2.86%
O=C(Cn1cnc2c(oc3nc4c(cc32)CCCC4)c1=O)Nc1cccc(Cl)c1,"inconclusive: 112 µM [inhibitor, partial curve, poor fit]",
CCOc1ccc2nnc(-c3ccc(Br)cc3)n2n1,"inconclusive: 100 µM [inhibitor, single point]",
CCn1c2ccccc2c2c3ncc4cccn4c3ccc21,"inconclusive: 100 µM [inhibitor, single point]",
NC(=O)c1nsc(C(=O)N(CC(=O)NC2CCCCC2)c2ccc(Cl)cc2)c1N,"inconclusive: 100 µM [inhibitor, single point]",
Cc1[nH]n(-c2ccccc2)c(=O)c1N=Nc1c(Cl)cccc1Cl,,inactive: 2.57%
CC(=O)c1cccc(NC(=S)NC(=O)c2cncc(Br)c2)c1,,inactive: -2.33%
CC(C)=NNc1nc2c(c(=O)n(C)c(=O)n2C)n1CCc1ccccc1,"inconclusive: 22.4 µM [inhibitor, single point]",
NC(=O)COC(=O)c1cccc(S(=O)(=O)N2CCN(c3ccccc3)CC2)c1,,inactive: 3.4%
N#CC1(NC(=O)CN2C(=O)c3ccc([N+](=O)[O-])cc3C2=O)CCCCC1,"inconclusive: 44.7 µM [inhibitor, single point]",
COC(=O)c1ccc(NC(=O)c2ccccc2CC[N+](=O)[O-])cc1,"inconclusive: 39.8 µM [inhibitor, single point]",
N#Cc1cccc(NC(=O)Cn2cnc(S(=O)(=O)N3CCCCC3)c2)c1,"inconclusive: 79.4 µM [inhibitor, single point]",
Brc1cc2c(cc1-c1nc3ccccc3s1)OCO2,"inconclusive: 112 µM [inhibitor, partial curve, poor fit]",
CSc1ccc(-c2sc(Nc3cccc4ccccc34)n[n+]2-c2ccccc2)cc1,"inconclusive: 126 µM [inhibitor, partial curve, poor fit]",
NC(=O)C1CCN(C(=O)c2cc(-c3ccc(Cl)s3)nc3ccccc23)CC1,"inconclusive: 79.4 µM [inhibitor, partial curve, poor fit]",
